Reference: patent publication US20030124644
Construct, isoform or probe ends are uncertain for at least one entry. Results from cells or extracts need not show a direct contact. For part of these data: A weaker result is weaker than the reference pair of the same experiment. Tags and fusion partners may be left off the protein sequences shown.

Tests used:
[1] = system: T1, ScbR (Streptomyces coelicolor); assay: footprint; conditions: DNase I, protein in a lysate after overexpression, label: 5'-32P
T1 sequence: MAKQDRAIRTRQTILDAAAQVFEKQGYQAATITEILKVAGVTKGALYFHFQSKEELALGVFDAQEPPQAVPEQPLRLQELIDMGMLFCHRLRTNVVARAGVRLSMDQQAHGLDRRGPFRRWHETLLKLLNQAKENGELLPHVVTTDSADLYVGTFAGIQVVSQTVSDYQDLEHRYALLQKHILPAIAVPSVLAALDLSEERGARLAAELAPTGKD

[2] = system: T1, ScbR (Streptomyces coelicolor); assay: EMSA; conditions: HEPES pH 7.5, KCl, calf thymus DNA, room temp; competed by excess unlabelled fragment; binding markedly reduced by 1 ug SCB1, little or no effect of its stereoisomers; protein in a lysate after overexpression; label: 5'-32P

Sequence: CGTTAAGATACAGACTGAGCGGTTTTTTTT (double strand) [ScbR binding site No.1 (upstream of scbA)]
- binding result ([1]; stronger affinity than site No.2 by extract dilution): binds

Sequence: GGAACCGGCAATGCGGTTTGTTCGATCGAGTTGGCATCGGACGCAGAATTGATCAAAACTACTGCTTCGGGCATGGGTCCCCCCCAGGAATCATGTGATGCCGAGCTGTTCTGTATGCGCGAACGTTAAGATACAGACTGAGCGGTTTTTTTT (double strand)
- binding result [2]: binds

Sequence: GGAACCGGCAATGCGGTTTGTTCGATCG (double strand) [ScbR binding site No.2 (upstream of scbR)]
- binding result ([1]; protected, lower affinity than site No.1): binds more weakly
